40 compounds from PubChem BioAssay AID445 (National Center for Advancing Translational Sciences (NCATS), 2006) can be followed below.

Structures are written as SMILES. The list shows a part of the results. Further columns of the screen follow, without active or inactive calls. Most of these compounds were active or inconclusive in the main read-out, so they are no random draw. The note in brackets gives the kind of curve behind each potency; many fits are weak.

The test can be described thus: IkB Signaling. Conditions: ABC-DLBCL IkBa-CBG/CBR dual luciferase ratio (green luciferase fused to IkBa over red control in OCI-Ly3 lymphoma cells), 4 h; measured here: control luc red channel unless noted. In outline:
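In this assay, an IκBα–CBG68 fusion accumulates when IKK-driven degradation is blocked; native CBR normalizes for cell number. OCI-Ly3 cells were treated 4 h with compound and doxycycline, then green and red light read after Chroma-Glo addition.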
Regarding `Cc1c(C(=O)OC2CCCCC2)[nH]c2c1C(=O)CC(c1ccccc1)C2` (stereo not given), the AC50 (commonly the midpoint of the concentration-response curve, whichever way the signal moves) is 31.6 µM [falling, partial curve, poor fit].
Under `Cc1ccc(OCC(=O)N(Cc2ccc(Cl)cc2)CC2CCCO2)cc1C` (stereo not given) stands 39.8 µM [falling, single point].
`COc1ccc(C(=O)N2CC(=O)Nc3ccc(C)cc3C2c2ccc(F)cc2)c(OC)c1` (stereo not given): the concentration at half-maximal activity (AC50) is 31.6 µM [falling, single point].
In the case of `COc1cccc(C(=O)Cn2c(=N)n(C)c3ccccc32)c1`, the AC50 was 12.6 µM [falling, partial curve].
Under `CCC(=O)N1CCc2cc(Br)cc(S(=O)(=O)CCC(=O)NCCc3ccc(C)cc3)c21` stands 3.16 µM [rising, single point]; under `COc1ccc(N(CC(=O)Nc2ccc(F)c(Cl)c2)S(=O)(=O)c2c(C)noc2C)cc1`, 12.6 µM [falling, partial curve]; under `CCOc1ccc(C(=O)N2CCC(c3nc(-c4ccc(S(=O)(=O)N5CCCC5)cc4)no3)CC2)cc1`, 15.8 µM [falling, partial curve].
Under `Cc1ccc(C(C)C)c(OCC(=O)Nc2cccc(-c3nc4ncccc4o3)c2)c1` stands 6.31 µM [falling, partial curve]; under `CCOc1ccc(NC(=O)N(Cc2ccc(CC)cc2)Cc2cn[nH]c2-c2ccc(OC)cc2)cc1`, 25.1 µM [falling, single point]; under `O=c1[nH]ncc2ccccc12`, 794 nM [rising, full curve] [measured here: IkB-luc green channel].
In the case of `CC(=O)Nc1ccc(NC(=O)CSc2cn(CC(=O)N(C(C)C)C(C)C)c3ccccc23)cc1`, the AC50 was 31.6 µM [falling, single point].
As for `Cc1ccc(-c2noc(CN(C3CCCCC3)S(=O)(=O)c3ccc(F)cc3)n2)cc1`, the AC50 was 12.6 µM [falling, partial curve].
Under `COc1ccc(OCCn2cc(C(=O)c3ccco3)c3ccccc32)cc1` stands 0.251 µM [falling, full curve]; under `CC1(C)CC(=O)C=C(Nc2ccccc2O)C1`, 3.16 µM [falling, partial curve]; under `CCC(C)Sc1nc2c([nH]c3ccccc32)c(=O)n1C` (stereo not given), 0.631 µM [rising, full curve].
Under `COc1ccc(-c2nc(C)c(CCNC(=O)c3ccco3)s2)cc1` stands 10 µM [rising, partial curve, poor fit]; under `Cc1ccccc1COC(=O)c1ccc(-c2nnn(Cc3ccccc3F)n2)cc1`, 3.98 µM [rising, full curve, poor fit].
Turning to `CCN1CCN(C(=O)c2ccc3c(c2)N(Cc2c(F)cccc2Cl)C(=O)c2ccccc2S3)CC1`, the AC50 was 12.6 µM [falling, partial curve].
Consider `Cc1oc2ccc(O)c(CN3CCN(C)CC3)c2c1C(=O)Nc1ccc(C(C)C)cc1`, for which the AC50 was 12.6 µM [falling, partial curve].
Under `Cc1cc(C)n2nc(NCc3ccccc3Cl)nc2n1` stands 31.6 µM [falling, partial curve].
Under `CCN(CC)c1ccc(C(=O)Nc2ccc3nc(N(CC)CC)cc(C)c3c2)cc1` stands 15.8 µM [falling, partial curve].
For `Cc1ccc2[nH]c(CSc3nnc(NC(=O)COc4ccccc4Cl)s3)cc(=O)c2c1`, the AC50 is 0.398 µM [falling, full curve, poor fit].
Under `CCc1ccc(NC(=O)C2CCCN(S(=O)(=O)c3cccc4cccnc34)C2)cc1` (stereo not given) stands 31.6 µM [falling, single point].
Under `O=C(/C=C/Nc1ccc(F)c(Cl)c1)c1ccco1` stands 25.1 µM [falling, partial curve]; under `Cc1ccc(CNC(=O)c2sc3ncnc(N(C)C4CCCCC4)c3c2C)cc1`, 39.8 µM [falling, single point].
Turning to `O=S(=O)(NCC(c1ccco1)N1CCOCC1)c1ccc(Cl)cc1` (stereo not given), the AC50 was 3.98 µM [rising, single point].
Under `Cc1ccccc1NC(=O)C1CCN(S(=O)(=O)c2ccccc2)CC1` stands 12.6 µM [falling, partial curve, poor fit]; under `CCc1nnc(NC(=O)CSc2nc3c([nH]c4ccccc43)c(=O)n2-c2ccc(C)cc2)s1`, 0.501 µM [rising, full curve, poor fit].
Under `COc1ccc2noc3c2c1C(=O)c1ccccc1-3` stands 6.31 µM [falling, full curve]; under `Cc1ccc(C)c(-c2ccc(=O)n(Cc3ccc(F)cc3Cl)n2)c1`, 3.16 µM [rising, partial curve]; under `CCOC(=O)C1CCCN(C(=O)Cn2ncc3c4ccccc4n(Cc4ccc(F)cc4)c3c2=O)C1` (stereo not given), 12.6 µM [falling, partial curve].
On to `O=C(COc1ccccc1)Nc1sc2c(c1C(=O)Nc1ccccc1)CCCCC2`, for which the AC50 was 2.51 µM [falling, full curve].
Under `Cc1ccc(-c2nnn(CC(=O)N(CC(=O)NCC3CCCO3)c3ccc(F)c(Cl)c3)n2)o1` (stereo not given) stands 20 µM [falling, partial curve].
Under `CC(C)(C)c1ccc(C(=O)Nc2ccc(OCc3cc(=O)n4ccsc4n3)cc2)cc1` stands 6.31 µM [falling, full curve]; under `Cc1cc(N2CCN(c3ccccc3)CC2)n2cnnc2n1`, 5.01 µM [falling, full curve].
Regarding `CCCN1CCN(CCCNC(=O)c2ccc3c(c2)sc2nc(-c4ccc(OCC)cc4)cn23)CC1`, the AC50 was 5.01 µM [falling, full curve, poor fit].
Then `CCOc1ccc(-c2cn3c(n2)sc2cc(C(=O)N4CCCC(C)C4)ccc23)cc1` (stereo not given), with 10 µM [falling, partial curve].
Then `Cc1cc(C)cc(OCC(=O)N(Cc2ccc(Cl)cc2)C2CCS(=O)(=O)C2)c1` (stereo not given), with 39.8 µM [falling, single point].
As to `COc1cc(C2=NOC(C(=O)NCc3ccc(F)cc3)C2)cc(OC)c1OC` (stereo not given), the AC50 was 10 µM [falling, partial curve].
Under `Cc1ccc2c(c1)-c1c(cnn1CC(=O)N1CCN(c3cc(C)ccc3C)CC1)CO2` stands 10 µM [falling, partial curve].
